Laboratory results: PubChem BioAssay AID1259308 (NCATS, 2017)
Assay: 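Candidate targets for better recombinant protein yield in mammalian cells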 (primary screen). System: human HEK293 embryonic kidney cells stably expressing firefly luciferase (HEK-CMV-Luc2-Hygro). Reagents: single siRNA against human genes, 0.8 pmol siRNA per well. Duration: 72 h. Measured: 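Reporter luminescence and viable-cell signal on separate replicate plates, given as percent of non-targeting control and median/MAD z-scores, plus per-cell luciferase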. Reading the numbers: total luciferase, z-score and total luciferase, % of control: higher = more reporter protein produced. Hit rule: 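An siRNA counts as active if its total luciferase robust z-score exceeds 3; genes with two or more such siRNAs out of three were retested with fresh siRNAs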. Meaning of the calls: active = raised luciferase; inactive = no rise.
This is a random part of about 59,000 reagents tested. Over the whole deposit, about 1,510 (2.6%) are marked active. 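Calls use total luciferase alone and ignore viability, so some active siRNAs may act by altering cell number.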 Unmarked entries are inactive. The numbers tell different reagents against one gene apart. Further read-outs or replicates are left out here. No sequences are given here.

RBBP7 (RB binding protein 7, chromatin remodeling factor) #1 — total luciferase, z-score = -0.526; total luciferase, % of control = 71.4
RBBP7 (RB binding protein 7, chromatin remodeling factor) #2 — total luciferase, z-score = -0.119; total luciferase, % of control = 79.5
RBBP7 (RB binding protein 7, chromatin remodeling factor) #3 — total luciferase, z-score = -0.278; total luciferase, % of control = 76.4
PPIB (peptidylprolyl isomerase B) #1 — total luciferase, z-score = -1.19; total luciferase, % of control = 58.2
PPIB (peptidylprolyl isomerase B) #2 — total luciferase, z-score = -1.15; total luciferase, % of control = 59
PPIB (peptidylprolyl isomerase B) #3 — total luciferase, z-score = -0.123; total luciferase, % of control = 79.4
PCLAF (PCNA clamp associated factor) #1 — total luciferase, z-score = -0.0689; total luciferase, % of control = 80.5
PCLAF (PCNA clamp associated factor) #2 — total luciferase, z-score = 0.906; total luciferase, % of control = 99.9
PCLAF (PCNA clamp associated factor) #3 — total luciferase, z-score = 2.42; total luciferase, % of control = 130
FOSL1 (FOS like 1, AP-1 transcription factor subunit) #1 — total luciferase, z-score = -0.48; total luciferase, % of control = 72.3
FOSL1 (FOS like 1, AP-1 transcription factor subunit) #2 — total luciferase, z-score = -0.891; total luciferase, % of control = 64.2
FOSL1 (FOS like 1, AP-1 transcription factor subunit) #3 — total luciferase, z-score = 0.597; total luciferase, % of control = 93.8
E2F3 (E2F transcription factor 3) #1 — total luciferase, z-score = 0.0481; total luciferase, % of control = 82.8
E2F3 (E2F transcription factor 3) #2 — total luciferase, z-score = -0.195; total luciferase, % of control = 78
E2F3 (E2F transcription factor 3) #3 — total luciferase, z-score = -0.473; total luciferase, % of control = 72.5

In a second layout: results already given.
PPIB (peptidylprolyl isomerase B) #2
- total luciferase, z-score: -1.15
- total luciferase, % of control: 59

PPIB (peptidylprolyl isomerase B) #3
- total luciferase, z-score: -0.123
- total luciferase, % of control: 79.4

PCLAF (PCNA clamp associated factor) #1
- total luciferase, z-score: -0.0689
- total luciferase, % of control: 80.5

PCLAF (PCNA clamp associated factor) #2
- total luciferase, z-score: 0.906
- total luciferase, % of control: 99.9

Further reagents:
CIMIP1 (ciliary microtubule inner protein 1) #1 — total luciferase, z-score = -0.306; total luciferase, % of control = 75.8
CIMIP1 (ciliary microtubule inner protein 1) #2 — total luciferase, z-score = -0.139; total luciferase, % of control = 79.1
CIMIP1 (ciliary microtubule inner protein 1) #3 — total luciferase, z-score = 1.83; total luciferase, % of control = 118
CTSW (cathepsin W) #1 — total luciferase, z-score = 1.39; total luciferase, % of control = 110
CTSW (cathepsin W) #2 — total luciferase, z-score = -0.0699; total luciferase, % of control = 80.5
CTSW (cathepsin W) #3 — total luciferase, z-score = -0.223; total luciferase, % of control = 77.4
LINC00615 (long independently transcribed non-coding RNA 615) #1 — total luciferase, z-score = -2.19; total luciferase, % of control = 38.4
LINC00615 (long independently transcribed non-coding RNA 615) #2 — total luciferase, z-score = 0.69; total luciferase, % of control = 95.6
LINC00615 (long independently transcribed non-coding RNA 615) #3 — total luciferase, z-score = 0.668; total luciferase, % of control = 95.2
KDM4A (lysine demethylase 4A) #1 — total luciferase, z-score = -1.43; total luciferase, % of control = 53.4
KDM4A (lysine demethylase 4A) #2 — total luciferase, z-score = 1.57; total luciferase, % of control = 113
KDM4A (lysine demethylase 4A) #3 — total luciferase, z-score = 0.603; total luciferase, % of control = 93.9
C19orf44 (chromosome 19 open reading frame 44) #1 — total luciferase, z-score = 1.15; total luciferase, % of control = 105
C19orf44 (chromosome 19 open reading frame 44) #2 — total luciferase, z-score = 1.28; total luciferase, % of control = 107
C19orf44 (chromosome 19 open reading frame 44) #3 — total luciferase, z-score = -0.731; total luciferase, % of control = 67.3
PBX4 (PBX homeobox 4) #1 — total luciferase, z-score = -2.77; total luciferase, % of control = 26.8
PBX4 (PBX homeobox 4) #2 — total luciferase, z-score = -0.0663; total luciferase, % of control = 80.6
PBX4 (PBX homeobox 4) #3 — total luciferase, z-score = -0.662; total luciferase, % of control = 68.7
HHIP-AS1 (HHIP antisense RNA 1) #1 — total luciferase, z-score = -0.836; total luciferase, % of control = 65.3
HHIP-AS1 (HHIP antisense RNA 1) #2 — total luciferase, z-score = 0.123; total luciferase, % of control = 84.3
HHIP-AS1 (HHIP antisense RNA 1) #3 — total luciferase, z-score = -0.806; total luciferase, % of control = 65.9
RCAN3 (regulator of calcineurin 3) #1 — total luciferase, z-score = 0.869; total luciferase, % of control = 99.2
RCAN3 (regulator of calcineurin 3) #2 — total luciferase, z-score = -1.09; total luciferase, % of control = 60.2
RCAN3 (regulator of calcineurin 3) #3 — total luciferase, z-score = 1.52; total luciferase, % of control = 112
RTN4 (reticulon 4) #1 — total luciferase, z-score = 0.463; total luciferase, % of control = 91.1
RTN4 (reticulon 4) #2 — total luciferase, z-score = -0.11; total luciferase, % of control = 79.7
RTN4 (reticulon 4) #3 — total luciferase, z-score = 0.526; total luciferase, % of control = 92.3
